Reference: US20220372155A1
No constants are given. Whether binding was seen depends on the method and setting. Some binding calls cover weakened binding; strength is not graded here.

T1: human B7H3 expressed on CHO cells (human) (UniProt Q5ZPR3)
T1 sequence (looked up): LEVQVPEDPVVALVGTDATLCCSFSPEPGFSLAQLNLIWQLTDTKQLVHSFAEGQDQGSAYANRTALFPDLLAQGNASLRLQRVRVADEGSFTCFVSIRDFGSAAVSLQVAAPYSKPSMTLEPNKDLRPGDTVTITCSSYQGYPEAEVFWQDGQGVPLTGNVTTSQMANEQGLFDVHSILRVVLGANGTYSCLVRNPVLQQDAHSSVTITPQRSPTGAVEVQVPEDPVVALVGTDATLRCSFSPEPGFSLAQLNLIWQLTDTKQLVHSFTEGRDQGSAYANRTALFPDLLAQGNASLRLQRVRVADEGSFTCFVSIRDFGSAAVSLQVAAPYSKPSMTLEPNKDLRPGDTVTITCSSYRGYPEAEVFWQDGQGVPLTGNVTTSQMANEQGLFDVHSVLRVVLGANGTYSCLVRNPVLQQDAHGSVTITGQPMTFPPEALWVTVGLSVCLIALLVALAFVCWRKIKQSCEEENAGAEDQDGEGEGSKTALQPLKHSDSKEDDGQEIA

T2: B7H3 (human) (UniProt Q5ZPR3)
T2 sequence (looked up): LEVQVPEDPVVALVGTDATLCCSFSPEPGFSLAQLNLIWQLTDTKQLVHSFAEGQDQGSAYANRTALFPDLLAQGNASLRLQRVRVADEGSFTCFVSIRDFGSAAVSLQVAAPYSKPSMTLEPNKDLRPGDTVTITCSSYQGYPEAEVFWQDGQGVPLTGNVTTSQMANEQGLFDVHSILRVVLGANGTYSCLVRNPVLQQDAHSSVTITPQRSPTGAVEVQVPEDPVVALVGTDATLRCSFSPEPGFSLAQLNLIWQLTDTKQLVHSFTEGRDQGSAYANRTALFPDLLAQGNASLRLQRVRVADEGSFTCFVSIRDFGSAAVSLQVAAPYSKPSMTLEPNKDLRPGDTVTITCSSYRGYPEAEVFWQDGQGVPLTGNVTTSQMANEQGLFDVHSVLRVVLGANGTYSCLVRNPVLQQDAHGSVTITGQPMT

T3: human B7H4 protein (human) (UniProt Q7Z7D3)
T3 sequence (looked up): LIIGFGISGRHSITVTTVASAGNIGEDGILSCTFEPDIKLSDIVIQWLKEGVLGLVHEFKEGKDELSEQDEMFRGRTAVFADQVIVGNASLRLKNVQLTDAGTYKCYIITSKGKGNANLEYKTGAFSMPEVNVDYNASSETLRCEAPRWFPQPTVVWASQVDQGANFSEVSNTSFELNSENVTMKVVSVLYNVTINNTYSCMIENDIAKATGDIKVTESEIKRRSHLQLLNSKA


Assays:
[1] = target: T1, human B7H3 expressed on CHO cells (human); experiment: FACS, CHO cells
B7H3 (human) = target: T2, B7H3 (human); experiment: assay not described
[2] = target: T3, human B7H4 protein (human); experiment: assay not described

Row | binding [1] | binding (B7H3 (human)) | binding [2] | Binder
1 | binds | binds | – | Ly383 (antibody, human IgG1, kappa, V domains shown) VH: EVQLQQSGPELVKPGASVKMSCKASGYTFTSYVMHWVKQKPGQGLEWIGYINPYNDGTECTDKFKGKATLTSDKSSSTAYMELSSLTSEDSAVYYCASIYYGYDGTYFGVWGAGTSVTVSS VL: QIVLSQSPAILSTSPGEKVTMTCRASSSVSYMHWYQQKPGSSPKPWIYATSNLASGVPARFSGSRSGTSYSLTISRVEAEDAATYYCQQWSSNTLTFGGGTKLELKR
2 | – | – | binds | Ly366 (chimeric) (antibody, human IgG1, kappa, V domains shown) VH: EVQLVESGGGLVKPGGSLKLSCAASGFTFSDSGMHWVRQAPEKGLEWITYINSGSSTIYYADSVKGRFTISRDNAKNTLFLQMTSLRSEDTAMYYCARGRGYAMDYWGQGTSVTVSS VL: EIVLTQSPTTMAASPGEKITIFCSASSSISSDFLHWYQQKPGFSPKLLIYRISNLASGVPARFSGSGSGTSYSLTIGTMEAEDVATYYCQQGSNVPRTFGGGTKLEIKR

The next lines start with the binder.

Row | Binder | binding [1] | binding (B7H3 (human)) | binding [2]
3 | Ly387 (antibody, human IgG1, kappa, V domains shown) VH: QVQLQQPGAELVKPGASVKLSCKASGYTFTSYWMHWVKQRPGQGLEWIGMIHPNSGGTNYNEKFKGKGTLTVDKSSSTAYMQLSSLTSDDSAVYYCVTSQATWFAYWGQGTLVTVSA VL: ENVLTQSPAIMSVSPGEKVTMTCRASSSVSSSYLHWYQQKSGASPKFWIYSTSNLASGVPARFSGSGSGTSYSLTISSVEAEDAATYYCQHYSGYPLTFGAGTKLELRR | binds | binds | –
4 | Ly361 (chimeric) (antibody, human IgG1, kappa, V domains shown) VH: EVQLVESGGDLVKPGGSLKLSCAASGFTFSSYGMSWVRQTPDKRLEWVAAISTGGSYTYYPDSVKGRFTISRDTATNTLYLQMSTLKSEDTAMYYCTRRGATGSWFAYWGQGTLVTVSA VL: DILMTQSPSSMSVSLGDTVSITCHASQGINNNIGWLQRKPGKSFKGLIYHGTNLEDGVPSRFSGSGSGADYSLTISSLESEDFADYYCVQYVQFPRTFGGGTKLEIKR | – | – | binds
